{"source": "patent US20230151432A1", "about": "“KIF18A INHIBITORS FOR TREATMENT OF NEOPLASTIC DISEASES” (AMGEN INC., priority 2020, published 2023)", "tested_on": "CAL-51 tumors", "experiment": "CAL-51 Tumor Xenograft Efficacy Study (IP)", "assay_type": "in vivo, mouse", "details": "25 mg/kg IP once daily for 18 consecutive days", "experimental": "Tumor volume and body weight assessment performed as described above. After the final dose on day 36, plasma pharmacokinetic analysis was performed as described above. All data analysis was performed as described above.", "note": "For at least one compound, name, drawing or mass did not settle the structure.", "data": [{"compound": "C[C@@H]1CN(c2cccc(NC(=O)c3ccc(NS(=O)(=O)CCO)cc3N3CCC4(CC3)CC4)n2)CCO1", "note": "[Compound C12, (R)-4-((2-Hydroxyethyl)sulfonamido)-N-(6-(2-methylmorpholino)pyridin-2-yl)-2-(6-azaspiro[2.5]octan-6-yl)benzamide]", "values": [{"measurement": "effect on tumor growth relative to vehicle control", "result": "no observable effect"}]}]}
